This is one part of the list. Repeats are few or missing, and single values can be far off.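 Imaging used 1,536-well plates; nuclei positive for cleaved PARP by antibody were divided by total DNA-stained nuclei to yield the apoptosis fraction. Doses for screening kept most cells viable, and cell lines differ markedly in resting and induced cleaved-PARP levels.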
Assays:
Assay in all cases: cleaved PARP positive nuclei fraction relative to DMSO control; melanoma cells; higher = more apoptosis
Conditions in all cases: library dose: low library concentration; 72 h
[1] = test system: CBRC034 (line from a melanoma biopsy)
[2] = test system: COLO792
[3] = test system: COLO800
[4] = test system: COLO829
[5] = test system: G361
[6] = test system: IPC-298
[7] = test system: IST-MEL1
[8] = test system: LB2518-MEL
[9] = test system: LOXIMVI
[10] = test system: MEL-HO

SMILES | cleaved PARP positive nuclei fraction [1] [%] | cleaved PARP positive nuclei fraction [2] [%] | cleaved PARP positive nuclei fraction [3] [%] | cleaved PARP positive nuclei fraction [4] [%] | cleaved PARP positive nuclei fraction [5] [%] | cleaved PARP positive nuclei fraction [6] [%] | cleaved PARP positive nuclei fraction [7] [%] | cleaved PARP positive nuclei fraction [8] [%] | cleaved PARP positive nuclei fraction [9] [%] | cleaved PARP positive nuclei fraction [10] [%]
Cn1cc(C2=C(c3cn(C4CCN(Cc5ccccn5)CC4)c4ccccc34)C(=O)NC2=O)c2ccccc21 [Enzastaurin] + Nc1cccc2c1CN(C1CCC(=O)NC1=O)C2=O [lenalidomide] (first compound 0.8 µM, partner dose 1 µM) | 133 | 159 | 129 | 73.1 | 173 | 82.2 | 43.5 | 53.2 | 296 | 272
Cc1ccc(Nc2nccc(N(C)c3ccc4c(C)n(C)nc4c3)n2)cc1S(N)(=O)=O [Pazopanib] + C[As](C)SC[C@H](NC(=O)CC[C@H](N)C(=O)O)C(=O)NCC(=O)O [Darinaparsin] (first compound 0.4 µM, partner dose 0.4 µM) | 85.4 | 67.6 | 94.5 | 108 | 94.4 | 146 | 39.1 | 58 | 375 | 31.1
O=C(Nc1cc(C(F)(F)F)cc(C(F)(F)F)c1)c1cc(Cl)ccc1O + C[As](C)SC[C@H](NC(=O)CC[C@H](N)C(=O)O)C(=O)NCC(=O)O [Darinaparsin] (first compound 0.016 µM, partner dose 0.4 µM) | 161 | 56.8 | 99 | 64.6 | 51.7 | 30 | 61.1 | 54.9 | 108 | 79.8
CN1CCN(c2ccc3nc(-c4c(N)c5c(F)cccc5[nH]c4=O)[nH]c3c2)CC1 [Dovitinib] + C[As](C)SC[C@H](NC(=O)CC[C@H](N)C(=O)O)C(=O)NCC(=O)O [Darinaparsin] (first compound 0.1 µM, partner dose 0.4 µM) | 66.2 | 123 | 137 | 121 | 139 | 41.6 | 88.2 | 147 | 97.6 | 88.2
Cn1c(=O)n(-c2ccc(C(C)(C)C#N)cc2)c2c3cc(-c4cnc5ccccc5c4)ccc3ncc21 + C[As](C)SC[C@H](NC(=O)CC[C@H](N)C(=O)O)C(=O)NCC(=O)O [Darinaparsin] (first compound 0.004 µM, partner dose 0.4 µM) | 78.3 | 126 | 117 | 67.3 | 138 | 88.5 | 258 | 203 | 77 | 124
C[C@]12O[C@H](C[C@]1(O)CO)n1c3ccccc3c3c4c(c5c6ccccc6n2c5c31)CNC4=O [Lestaurtinib] + NC1(c2ccc(-c3nc4ccn5c(=O)[nH]nc5c4cc3-c3ccccc3)cc2)CCC1 [MK2206] (first compound 0.004 µM, partner dose 0.4 µM) | 106 | 200 | 198 | 62.4 | 43.7 | 129 | 150 | 141 | 213 | 292
N.N.[Cl][Pt][Cl] [cisplatin] + CN1CCN(c2ccc3nc(-c4c(N)c5c(F)cccc5[nH]c4=O)[nH]c3c2)CC1 [Dovitinib] (first compound 1.6 µM, partner dose 0.1 µM) | 148 | 109 | 58.3 | 62.7 | 85.9 | 121 | 94.2 | 94 | 150 | 58
CCCCCCCCCCCCCCCCCCOP(=O)([O-])OC1CC[N+](C)(C)CC1 [Perifosine] + C[As](C)SC[C@H](NC(=O)CC[C@H](N)C(=O)O)C(=O)NCC(=O)O [Darinaparsin] (first compound 0.4 µM, partner dose 0.4 µM) | 148 | 96.5 | 144 | 75.3 | 120 | 53.5 | 120 | 87.3 | 50.9 | 126
O=C(Nc1cc(C(F)(F)F)cc(C(F)(F)F)c1)c1cc(Cl)ccc1O + C[C@]12O[C@H](C[C@]1(O)CO)n1c3ccccc3c3c4c(c5c6ccccc6n2c5c31)CNC4=O [Lestaurtinib] (first compound 0.016 µM, partner dose 0.004 µM) | 73.8 | 160 | 96.3 | 144 | 156 | 82.8 | 63.9 | 101 | 138 | 99.4
Nc1ncn([C@H]2C[C@H](O)[C@@H](CO)O2)c(=O)n1 [decitabine] + C[As](C)SC[C@H](NC(=O)CC[C@H](N)C(=O)O)C(=O)NCC(=O)O [Darinaparsin] (first compound 0.1 µM, partner dose 0.4 µM) | 263 | 132 | 83.5 | 87.8 | 198 | 46.3 | 34.1 | 112 | 64 | 88.6
Cn1cc(C2=C(c3cn(C4CCN(Cc5ccccn5)CC4)c4ccccc34)C(=O)NC2=O)c2ccccc21 [Enzastaurin] + NC(=O)c1ccc(N(C(N)=O)c2c(F)cccc2F)nc1-c1ccc(F)cc1F [VX702] (first compound 0.8 µM, partner dose 0.4 µM) | 62.9 | 36.1 | 98 | 48.3 | 93.2 | 121 | 54.1 | 152 | 171 | 107
C[C@]12O[C@H](C[C@]1(O)CO)n1c3ccccc3c3c4c(c5c6ccccc6n2c5c31)CNC4=O [Lestaurtinib] + O=C(O)c1ccc2c(c1)nc(Nc1cccc(Cl)c1)c1ccncc12 [CX4945] (first compound 0.004 µM, partner dose 0.4 µM) | 300 | 87.3 | 96.7 | 165 | 126 | 178 | 215 | 114 | 68.6 | 198
CC(=O)c1c(C)c2cnc(Nc3ccc(N4CCNCC4)cn3)nc2n(C2CCCC2)c1=O [palbociclib] + C[As](C)SC[C@H](NC(=O)CC[C@H](N)C(=O)O)C(=O)NCC(=O)O [Darinaparsin] (first compound 0.04 µM, partner dose 0.4 µM) | 68.5 | 77.6 | 49.5 | 105 | 57.6 | 103 | 81.6 | 72.2 | 109 | 102
O=C(O)c1ccc2c(c1)nc(Nc1cccc(Cl)c1)c1ccncc12 + C[As](C)SC[C@H](NC(=O)CC[C@H](N)C(=O)O)C(=O)NCC(=O)O [Darinaparsin] (first compound 0.4 µM, partner dose 0.4 µM) | 150 | 51.7 | 171 | 80.1 | 36.1 | 47.7 | 87.4 | 95.9 | 107 | 45.7
N.N.[Cl][Pt][Cl] [cisplatin] + O=C(O)[C@@H]1[O][Sb](=[O])([O][Sb]2(=[O])[O][C@H]([C@H](O)CO)[C@H](O)[C@H](C(=O)O)[O]2)[O][C@H]([C@H](O)CO)[C@@H]1O [stibogluconate] (first compound 1.6 µM, partner dose 2 µM) | 124 | 162 | 255 | 121 | 44.5 | 123 | 91 | 106 | 73.6 | 155
O=C(Nc1cc(C(F)(F)F)cc(C(F)(F)F)c1)c1cc(Cl)ccc1O + N.N.[Cl][Pt][Cl] [cisplatin] (first compound 0.016 µM, partner dose 1.6 µM) | 34 | 169 | 85.2 | 41.4 | 179 | 44.3 | 128 | 108 | 115 | 148
Cn1cc(C2=C(c3cn(C4CCN(Cc5ccccn5)CC4)c4ccccc34)C(=O)NC2=O)c2ccccc21 [Enzastaurin] + Cc1nc(Nc2ncc(C(=O)Nc3c(C)cccc3Cl)s2)cc(N2CCN(CCO)CC2)n1 [dasatanib] (first compound 0.8 µM, partner dose 0.004 µM) | 55.3 | 38.7 | 133 | 82.5 | 125 | 40.8 | 74.7 | 57.5 | 143 | 33.5
CC1(C)CCC(c2ccc(Cl)cc2)=C(CN2CCN(c3ccc(C(=O)NS(=O)(=O)c4ccc(N[C@H](CCN5CCOCC5)CSc5ccccc5)c(S(=O)(=O)C(F)(F)F)c4)cc3)CC2)C1 + N.N.[Cl][Pt][Cl] [cisplatin] (first compound 0.4 µM, partner dose 1.6 µM) | 159 | 432 | 44.8 | 193 | 127 | 81.5 | 117 | 122 | 144 | 51.6
C[C@]12O[C@H](C[C@]1(O)CO)n1c3ccccc3c3c4c(c5c6ccccc6n2c5c31)CNC4=O [Lestaurtinib] + CCCCCCCCc1ccc(CCC(N)(CO)CO)cc1 [fingolimod] (first compound 0.004 µM, partner dose 2 µM) | 104 | 87.7 | 89.2 | 65.5 | 116 | 44.5 | 316 | 98.2 | 183 | 119
Cc1cc(Nc2cc(N3CCN(C)CC3)nc(Sc3ccc(NC(=O)C4CC4)cc3)n2)n[nH]1 [Tozasertib] + C[C@]12O[C@H](C[C@]1(O)CO)n1c3ccccc3c3c4c(c5c6ccccc6n2c5c31)CNC4=O [Lestaurtinib] (first compound 0.006 µM, partner dose 0.004 µM) | 47.4 | 70.8 | 94.6 | 43.4 | 122 | 44.8 | 72.1 | 102 | 46.8 | 27.7
Cc1cn(-c2cc(NC(=O)c3ccc(C)c(Nc4nccc(-c5cccnc5)n4)c3)cc(C(F)(F)F)c2)cn1 [nilotinib] + C[As](C)SC[C@H](NC(=O)CC[C@H](N)C(=O)O)C(=O)NCC(=O)O [Darinaparsin] (first compound 0.2 µM, partner dose 0.4 µM) | 44.2 | 139 | 74.9 | 140 | 57.4 | 57.4 | 139 | 95.9 | 37.9 | 136

Record cards, as listed above. Values in the order: cleaved PARP positive nuclei fraction [1] [%] | cleaved PARP positive nuclei fraction [2] [%] | cleaved PARP positive nuclei fraction [3] [%] | cleaved PARP positive nuclei fraction [4] [%] | cleaved PARP positive nuclei fraction [5] [%] | cleaved PARP positive nuclei fraction [6] [%] | cleaved PARP positive nuclei fraction [7] [%] | cleaved PARP positive nuclei fraction [8] [%] | cleaved PARP positive nuclei fraction [9] [%] | cleaved PARP positive nuclei fraction [10] [%]
Cc1cn(-c2cc(NC(=O)c3ccc(C)c(Nc4nccc(-c5cccnc5)n4)c3)cc(C(F)(F)F)c2)cn1 [nilotinib] + C[As](C)SC[C@H](NC(=O)CC[C@H](N)C(=O)O)C(=O)NCC(=O)O [Darinaparsin] (first compound 0.2 µM, partner dose 0.4 µM) as listed: 44.2 | 139 | 74.9 | 140 | 57.4 | 57.4 | 139 | 95.9 | 37.9 | 136
CC1(C)CCC(c2ccc(Cl)cc2)=C(CN2CCN(c3ccc(C(=O)NS(=O)(=O)c4ccc(N[C@H](CCN5CCOCC5)CSc5ccccc5)c(S(=O)(=O)C(F)(F)F)c4)cc3)CC2)C1 + N.N.[Cl][Pt][Cl] [cisplatin] (first compound 0.4 µM, partner dose 1.6 µM) as listed: 159 | 432 | 44.8 | 193 | 127 | 81.5 | 117 | 122 | 144 | 51.6
